Measured values from PubChem BioAssay AID493014 (National Center for Advancing Translational Sciences (NCATS), 2011).
The whole screen tested about 340,000 compounds, of which about 170 (0.05%) were called active. The shares of active, inactive and inconclusive entries below differ from those in the screen. Calls come from the whole dose curve; as a rule, active = well fitted inhibition curve with a large enough effect in the signal ratio, with a control signal flat (not every such curve was filed as active); inconclusive = small, poorly fitted or top-dose-only effect, or effect the other way, or a change in a side signal; inactive = flat fitted curve, though single readings scatter; the % refers to the signal ratio. Potencies of inconclusive entries are doubtful fits and often do not repeat.

Assay: qHTS Assay to Find Inhibitors of Chronic Active B-Cell Receptor Signaling;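 for activity change, negative = inhibition: plate controls were basal doxycycline-induced cells for no effect and cells given 10 µM MG132 for full effect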
Conditions: ABC-DLBCL IkBa-CBG/CBR reporter, luminescence ratio (green luciferase fused to IkBa over red control in TMD8 lymphoma cells), 4 h; activity change, negative = inhibition: at 46.1 µM (top of the series)
Summary of the method: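 Cell line TMD8 (human ABC DLBCL), stably expressing tet-inducible CBG68-IkBa fusion and CBR; IMDM/0.5% FBS; cpd up to 46 uM; dox induction, 4 h, 37C/5% CO2; dual luminescence; green/red ratio; MG132 control.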
Potency is the fitted concentration of half-maximal effect.

| Compound | activity change, negative = inhibition | Potency |
| --- | --- | --- |
| Cc1noc(/C=C/N(C)C)c1S(=O)(=O)N1CCN(c2ccccc2)CC1 | inconclusive: 5.29% | – |
| Nc1nc(Cl)cc(N2CCC(c3cc(-c4ccc(Cl)cc4)n[nH]3)CC2)n1 | inconclusive: -13.4% | – |
| CCCOC(=O)c1ccc(NC(=O)CC(C)(C)C)cc1 | – | inconclusive: 35.5 µM [falling, partial curve] |
| CCCCCC[n+]1c(-c2ccccc2)csc1Nc1ccccc1 | – | inconclusive: 18.4 µM [rising, partial curve, poor fit] |
| CCSc1nnc(-c2ccc(OC)cc2)o1 | inconclusive: -5.39% | – |
| Cc1c(C(=O)c2ccccc2)c2ccccn2c1CCC#N | inconclusive: -16.3% | – |
| Cc1cc2n(n1)C(c1ccccc1)CC(c1ccc(Br)cc1)=N2 (stereo not given) | inconclusive: 15.9% | – |
| CCCCn1c(=O)n(CC(=O)Nc2ccc(C)c(Cl)c2)c(=O)c2c1ncn2Cc1ccco1 | inconclusive: -15.4% | – |
| O=C(NCC12CC3CC(CC(C3)C1)C2)c1nn2c(c1Cl)NC(c1ccco1)CC2C(F)(F)F (stereo not given) | inactive | – |
| C[C@@H](NC(=O)c1nc[nH]c1C(=O)N[C@@H](Cc1ccccc1)C(=O)OCc1ccccc1)c1ccccc1 | inactive | – |
| CCOC(=O)c1ccc([N+](=O)[O-])c(CS(=O)(=O)c2ccc(Cl)cc2)c1 | inconclusive: 0.488% | – |
| COc1ccc(-c2csc(NC(=O)c3ccccc3NS(=O)(=O)c3ccc(F)c(F)c3)n2)cc1 | – | inconclusive: 5.62 µM [falling, single point] |
| CCOc1ccc(S(=O)(=O)N(CC)CC)cc1NC(=O)c1ccc(N2CCCC2=O)cc1 | inactive | – |
| CCCCCn1c(=O)[nH]c2cc(C(=O)N3CCN(C(=O)OCC)CC3)ccc2c1=O | inactive | – |
| O=C(Nc1ccc(F)cc1)N1CCN(c2ccc3nnc(-c4ccc(F)cc4)n3n2)CC1 | inconclusive: 6.05% | – |
| CN(CC(=O)Nc1ccc(F)c(F)c1F)c1cnccn1 | inconclusive: 6.28% | – |
| COCCN(Cc1cc2ccc(C)c(C)c2nc1Cl)C(=O)N1CCOCC1 | inactive | – |
| Cc1sc(N2C(=O)C3C(C2=O)[C@H]2C=C[C@@H]3C2)c(C#N)c1C (stereo not given in full) | inactive | – |
| O=C(NC1CCCCCC1)c1ccc(-n2cnnc2)cc1 | inconclusive: -21.7% | – |
| O=C(CCN1CCN(Cc2ccccc2)CC1)NNC(=O)Cc1ccc(Cl)c(Cl)c1 | inactive | – |
| N#Cc1nc(COc2ccccc2)oc1N1CCOCC1 | inconclusive: 1.08% | – |
| COc1cccc2cc(C(C)=O)oc12 | inactive | – |
| COc1ccccc1N1CCN(C(=O)c2c(-c3c(Cl)cccc3Cl)noc2C)CC1 | inconclusive: -16.3% | – |
| Cc1ccnc(NS(=O)(=O)c2ccc(NC(=O)C3CCCNC3=O)cc2)n1 (stereo not given) | inconclusive: 13.4% | – |
| Cc1ccc(-c2nc(SCC(=O)Nc3ccccc3OC(F)F)c3c(C)c(C(=O)O)sc3n2)cc1 | – | inconclusive: 4.47 µM [rising, full curve, poor fit] |

| Compound | activity change, negative = inhibition | Potency |
| --- | --- | --- |
| CC(=O)Nc1cc(C)c2nc(NC(C)=O)sc2c1 | inconclusive: 2.19% | – |
| CCCC(=O)Nc1ccc(NC(=O)CCc2ccccc2)cn1 | inactive | – |
| O=C(Nc1cccc(O)c1)c1cc(-c2ccc3c(c2)OCO3)on1 | – | inconclusive: 5.62 µM [rising, single point] |
| Clc1ccc(-c2nnc3n2CCCCC3)cc1 | inconclusive: -0.144% | – |
| CCOC(=O)C1=C(C)OC(N)=C(C#N)C1c1cc2cc(C)ccc2nc1N1CCCCC1 (stereo not given) | – | inconclusive: 23.1 µM [rising, single point] |
| COc1ccc(CC(=O)NCc2ccc3c(c2)cc(C)n3C)cc1OC | inactive | – |
| Cc1cccnc1NC(=O)c1ccc(S(=O)(=O)N2CCCCC2)cc1 | inconclusive: 8.93% | – |
| COc1ccc(Cc2nnc(SCC(=O)NC3CCCC3)o2)cc1 | – | inconclusive: 20.6 µM [falling, partial curve] |
| CCN1CCN(Cc2ccc(NC(=O)c3ccc(C)c(NC(=O)c4csc(-c5ccncc5)n4)c3)cc2C(F)(F)F)CC1 | inconclusive: 13.6% | – |
| COc1ccc(-c2cn(-c3ccccc3)nc2CO)cc1 | inconclusive: -5.63% | – |
| CC(=O)c1cccc(NC(=O)CSc2nnc3ccc(-c4ccc(F)cc4)nn23)c1 | inconclusive: 12.4% | – |
| CCCC(OC(=O)CC1Sc2ccccc2NC1=O)C(=O)NCc1ccco1 (stereo not given) | inactive | – |
| O=C(Nc1cc(S(=O)(=O)N2CCCCC2)ccc1O)c1ccccc1NS(=O)(=O)c1ccc(F)c(F)c1 | – | inconclusive: 18.4 µM [rising, single point] |
| COc1cc(C(=S)N2CCCC2)ccc1OCc1ccc(C)cc1 | inconclusive: 7.94% | – |
| Cc1ccc(CC2CC(=O)N(CCc3ccc4c(c3)OCO4)C2=O)cc1 (stereo not given) | inactive | – |
| CCN(CC(=O)NC(C)C)Cc1nc2sc3c(c2c(=O)[nH]1)CCC3 | – | inconclusive: 32.6 µM [falling, single point] |
| COc1cc2nc(CN(C)Cc3ccc(OC)c(OC)c3OC)[nH]c(=O)c2cc1OC | inactive | – |
| COc1ccc2c(c1)C(C)=CC(C)(C)N2S(=O)(=O)c1ccc(NC(C)=O)cc1 | – | active: 4.47 µM |
| CCOC(=O)C1CCN(C(=O)COC(=O)/C=C/c2ccccc2)CC1 | – | inconclusive: 9.2 µM [falling, single point] |
| COc1ccc(OC)c(C2CC(=O)Nc3n[nH]c(-c4ccccc4)c32)c1 (stereo not given) | – | inconclusive: 10 µM [falling, partial curve, poor fit] |
| COc1ccc(-c2nc3scc(CCNS(=O)(=O)c4c(C)noc4C)n3n2)cc1OC | – | inconclusive: 10 µM [falling, partial curve] |
| CCOC(=O)c1c(S(=O)(=O)NCC(=O)N2CCN(c3cccc(Cl)c3)CC2)c(C)n(C)c1C | inactive | – |
| O=C(Nc1nc(-c2cccs2)c(-c2ccccc2)s1)c1ccco1 | inactive | – |
| Cc1cccc(N(CC(N)=O)C2SC(=O)N(c3ccccc3)C2=O)c1 (stereo not given) | – | inconclusive: 14.6 µM [falling, partial curve, poor fit] |
| CN(C)c1ccc(-c2nnc(-c3ccccc3F)o2)cc1 | – | inconclusive: 35.5 µM [rising, single point] |

By substructure, the compounds so far with an aryl thioether with sulfur outside any ring.

| Compound | activity change, negative = inhibition | Potency |
| --- | --- | --- |
| CCSc1nnc(-c2ccc(OC)cc2)o1 | inconclusive: -5.39% | – |
| Cc1ccc(-c2nc(SCC(=O)Nc3ccccc3OC(F)F)c3c(C)c(C(=O)O)sc3n2)cc1 | – | inconclusive: 4.47 µM [rising, full curve, poor fit] |
| COc1ccc(Cc2nnc(SCC(=O)NC3CCCC3)o2)cc1 | – | inconclusive: 20.6 µM [falling, partial curve] |
| CC(=O)c1cccc(NC(=O)CSc2nnc3ccc(-c4ccc(F)cc4)nn23)c1 | inconclusive: 12.4% | – |
